Assay results: patent publication US4550078A, “Method for the quantitative determination of individual polyamine components in a mixture” (Amano Seiyaku Kabushiki Kaisha, priority 1982, dated 1985)

Assay: Example 3: determination of polyamines in red blood corpuscles, steps A1 to G1

NCCCCNCCCN [spermidine]
Concentration in red blood corpuscles: 25.6 µM

NCCCCN [putrescine]
Concentration in red blood corpuscles: 1.2 µM

NCCCNCCCCNCCCN [spermine]
Concentration in red blood corpuscles: 7.0 µM

CC(=O)NCCCCNCCCN [N^8 -acetylspermidine]
Concentration in red blood corpuscles: 2.3 µM
